The exact form of at least one protein or probe is not confirmed. Results from cells or extracts need not show a direct contact. For some assays here: The comparison behind a weaker result is the experiment's own reference, which may not be listed here. For some assays here: Where a protein sequence is shown, tags need not be part of it.
Experiments:
NF-kB p50 (Homo sapiens) = target: T1, NF-kB p50 (Homo sapiens) (UniProt P19838); assay: EMSA supershift; settings: PBMC nuclear extract, glucan phosphate 1 h, anti-p50, lesser degree than p65; EMSA with PBMC nuclear extracts and 32P-labelled ds oligos; protein in an extract; label: 5'-32P
T1 sequence (looked up, limits assumed): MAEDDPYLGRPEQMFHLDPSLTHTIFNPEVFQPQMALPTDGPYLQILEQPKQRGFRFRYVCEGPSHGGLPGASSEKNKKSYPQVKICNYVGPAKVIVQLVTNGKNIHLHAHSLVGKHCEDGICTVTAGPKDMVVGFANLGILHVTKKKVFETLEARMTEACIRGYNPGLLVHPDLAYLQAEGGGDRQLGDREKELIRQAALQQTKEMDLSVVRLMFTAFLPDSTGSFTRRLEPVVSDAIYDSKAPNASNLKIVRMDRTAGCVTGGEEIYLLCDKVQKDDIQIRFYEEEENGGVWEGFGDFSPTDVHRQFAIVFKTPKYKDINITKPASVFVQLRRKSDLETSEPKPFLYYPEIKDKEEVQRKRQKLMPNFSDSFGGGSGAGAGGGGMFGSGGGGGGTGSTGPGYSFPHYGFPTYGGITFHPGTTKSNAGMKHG

Chains of the proteins cited; added tags and fusions are not shown.
UniProt Q04206, whole entry: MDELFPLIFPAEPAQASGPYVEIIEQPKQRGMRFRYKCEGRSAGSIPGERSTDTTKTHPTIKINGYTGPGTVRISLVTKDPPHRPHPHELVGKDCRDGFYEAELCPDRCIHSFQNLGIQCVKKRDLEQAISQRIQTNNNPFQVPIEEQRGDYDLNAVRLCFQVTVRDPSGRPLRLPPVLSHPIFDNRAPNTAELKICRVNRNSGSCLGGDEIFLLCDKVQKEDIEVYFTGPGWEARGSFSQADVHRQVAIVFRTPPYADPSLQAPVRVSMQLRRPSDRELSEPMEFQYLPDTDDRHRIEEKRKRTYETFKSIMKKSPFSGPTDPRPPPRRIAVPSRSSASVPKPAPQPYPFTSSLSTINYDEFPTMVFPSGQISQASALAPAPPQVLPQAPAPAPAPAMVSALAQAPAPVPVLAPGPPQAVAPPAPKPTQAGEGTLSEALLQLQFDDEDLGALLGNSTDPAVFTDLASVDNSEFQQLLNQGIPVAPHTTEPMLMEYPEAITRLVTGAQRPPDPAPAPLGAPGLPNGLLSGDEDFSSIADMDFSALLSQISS

NF-kB p65 (Homo sapiens) = NF-kB p65 (Homo sapiens) (UniProt Q04206); assay: EMSA supershift; settings: PBMC nuclear extract, glucan phosphate 1 h, anti-p65, predominant; EMSA with PBMC nuclear extracts and 32P-labelled ds oligos; protein in an extract; label: 5'-32P

“ATCGTGGAATTTCCTCTGA (double strand) [IL-8kBcS (NFkB consensus, IL-8 promoter)]”: binds more weakly (NF-kB p50 (Homo sapiens)); binds (NF-kB p65 (Homo sapiens)).

— publication PMC1472690
